Results as given in the supplement of paper PMC4604168 (melanoma cell lines).
The other results are listed elsewhere or left out. Many values rest on one well or one pass, so single values are uncertain.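 Cells were imaged in 1,536-well plates, and nuclei stained with an antibody against cleaved PARP were counted against all DNA-stained nuclei to give the apoptosis fraction. Screening doses were chosen to leave most cells alive, and resting and induced cleaved-PARP levels differ strongly between cell lines.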

test system: SkMel28; test: cleaved PARP positive nuclei fraction relative to DMSO control; melanoma cells; higher = more apoptosis; details: library dose: low library concentration; 72 h

SMILES	cleaved PARP positive nuclei fraction [%]
C[C@]12O[C@H](C[C@]1(O)CO)n1c3ccccc3c3c4c(c5c6ccccc6n2c5c31)CNC4=O [Lestaurtinib] + COc1ccc(COc2ccc(Cc3cnc(N)nc3N)cc2OC)cc1 [GW2580] (first compound 0.004 µM, partner dose 1 µM)	122
Cc1nc(Nc2ncc(C(=O)Nc3c(C)cccc3Cl)s2)cc(N2CCN(CCO)CC2)n1 [dasatanib] + C/C(O)=C(\C#N)C(=O)Nc1cc(Br)ccc1Br [LFM-A13] (first compound 0.004 µM, partner dose 2 µM)	66.3
Cc1cc(SCc2sc(-c3ccc(C(F)(F)F)c(F)c3)nc2C)ccc1OCC(=O)O + Cc1cc([N+](=O)[O-])ccc1NS(=O)(=O)c1cc(Cl)ccc1Cl [FH535] (first compound 2 µM, partner dose 1 µM)	99.7
O=S(=O)(c1ccccc1)N(CC(F)(F)F)c1ccc(C(O)(C(F)(F)F)C(F)(F)F)cc1 + C/C(O)=C(\C#N)C(=O)Nc1cc(Br)ccc1Br [LFM-A13] (first compound 1.4 µM, partner dose 2 µM)	102
O=C(Oc1ccc([N+](=O)[O-])cc1)N1CCC(C(O)(c2ccc3c(c2)OCO3)c2ccc3c(c2)OCO3)CC1 + CCCCCCCCCCCC1=C(O)C(=O)C=C(O)C1=O [Embelin] (first compound 1 µM, partner dose 1.2 µM)	85.1
Cn1cncc1[C@@](N)(c1ccc(Cl)cc1)c1ccc2c(c1)c(-c1cccc(Cl)c1)cc(=O)n2C [tipifarnib] + Cc1cc(SCc2sc(-c3ccc(C(F)(F)F)c(F)c3)nc2C)ccc1OCC(=O)O [GW0742] (first compound 0.01 µM, partner dose 2 µM)	139
O=C1NC(=O)/C(=C/c2ccc(-c3ccc(F)cc3O)o2)S1 + O=C(Oc1ccc([N+](=O)[O-])cc1)N1CCC(C(O)(c2ccc3c(c2)OCO3)c2ccc3c(c2)OCO3)CC1 [JZL184] (first compound 1 µM, partner dose 1 µM)	63.1
CN(C)S(=O)(=O)c1ccc2c(c1)/C(=C/c1cc3c([nH]1)CCCC3)C(=O)N2 + Cc1cc(SCc2sc(-c3ccc(C(F)(F)F)c(F)c3)nc2C)ccc1OCC(=O)O [GW0742] (first compound 0.4 µM, partner dose 2 µM)	193
O=C(Oc1ccc([N+](=O)[O-])cc1)N1CCC(C(O)(c2ccc3c(c2)OCO3)c2ccc3c(c2)OCO3)CC1 + Cn1cc(/C=C2\C(=O)Nc3cccnc32)c2ccccc21 [GW441756] (first compound 1 µM, partner dose 0.4 µM)	112
CO[C@H]1C[C@@H]2CC[C@@H](C)[C@@](O)(O2)C(=O)C(=O)N2CCCC[C@H]2C(=O)O[C@H]([C@H](C)C[C@@H]2CC[C@@H](OCCO)[C@H](OC)C2)CC(=O)[C@H](C)/C=C(\C)[C@@H](O)[C@@H](OC)C(=O)[C@H](C)C[C@H](C)/C=C/C=C/C=C/1C [everolimus] + Cc1cc(SCc2sc(-c3ccc(C(F)(F)F)c(F)c3)nc2C)ccc1OCC(=O)O [GW0742] (first compound 0.02 µM, partner dose 2 µM)	87.4
C[C@]12O[C@H](C[C@]1(O)CO)n1c3ccccc3c3c4c(c5c6ccccc6n2c5c31)CNC4=O [Lestaurtinib] + CO[C@@H]1[C@H](N(C)C(=O)c2ccccc2)C[C@H]2O[C@]1(C)n1c3ccccc3c3c4c(c5c6ccccc6n2c5c31)C(=O)NC4 [Midostaurin] (first compound 0.004 µM, partner dose 0.08 µM)	67.1
C[C@]12O[C@H](C[C@]1(O)CO)n1c3ccccc3c3c4c(c5c6ccccc6n2c5c31)CNC4=O [Lestaurtinib] + NC(=O)Nc1cc(-c2cccc(F)c2)sc1C(=O)N[C@H]1CCCNC1 [AZD7762] (first compound 0.004 µM, partner dose 0.02 µM)	51.4
C[C@]12O[C@H](C[C@]1(O)CO)n1c3ccccc3c3c4c(c5c6ccccc6n2c5c31)CNC4=O [Lestaurtinib] + CN(NC(=O)CC(=O)NN(C)C(=S)c1ccccc1)C(=S)c1ccccc1 [STA4783] (first compound 0.004 µM, partner dose 0.006 µM)	74.2
N#Cc1c(O)c2c(-c3ccc(-c4ccccc4O)cc3)csc2[nH]c1=O + Cc1cc(SCc2sc(-c3ccc(C(F)(F)F)c(F)c3)nc2C)ccc1OCC(=O)O [GW0742] (first compound 2 µM, partner dose 2 µM)	54
C[C@]12O[C@H](C[C@]1(O)CO)n1c3ccccc3c3c4c(c5c6ccccc6n2c5c31)CNC4=O [Lestaurtinib] + O=C(O)C(=O)Nc1sc2c(c1C(=O)O)CCNC2 [TCS401] (first compound 0.004 µM, partner dose 1.66667 µM)	95.2

As a working copy, part of the list above.
SMILES	cleaved PARP positive nuclei fraction [%]
O=S(=O)(c1ccccc1)N(CC(F)(F)F)c1ccc(C(O)(C(F)(F)F)C(F)(F)F)cc1 + C/C(O)=C(\C#N)C(=O)Nc1cc(Br)ccc1Br [LFM-A13] (first compound 1.4 µM, partner dose 2 µM)	102
O=C(Oc1ccc([N+](=O)[O-])cc1)N1CCC(C(O)(c2ccc3c(c2)OCO3)c2ccc3c(c2)OCO3)CC1 + CCCCCCCCCCCC1=C(O)C(=O)C=C(O)C1=O [Embelin] (first compound 1 µM, partner dose 1.2 µM)	85.1
